# Assay results: PMC7819943, “Rice protein-binding microarrays: a tool to detect cis-acting elements near promoter regions in rice”
# This is one part of the list.
# Target: T1, OsSMF1 (Oryza sativa, UniProt Q6ZLB0 1-436)
# T1 sequence: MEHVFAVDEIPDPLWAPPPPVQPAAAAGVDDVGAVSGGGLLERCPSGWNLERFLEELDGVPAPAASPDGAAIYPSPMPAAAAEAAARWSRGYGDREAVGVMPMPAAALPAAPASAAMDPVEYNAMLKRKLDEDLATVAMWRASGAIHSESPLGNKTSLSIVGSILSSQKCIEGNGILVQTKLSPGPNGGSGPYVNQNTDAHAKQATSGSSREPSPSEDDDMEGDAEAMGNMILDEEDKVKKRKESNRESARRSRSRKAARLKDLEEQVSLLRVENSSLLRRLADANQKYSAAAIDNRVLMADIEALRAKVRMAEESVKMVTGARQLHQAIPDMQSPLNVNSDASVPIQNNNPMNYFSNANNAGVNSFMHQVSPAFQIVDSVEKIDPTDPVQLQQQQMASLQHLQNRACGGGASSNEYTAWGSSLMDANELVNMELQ
# Assay: protein-binding microarray (RPBM); PBS, 2% BSA, 51.3 ng/ul salmon testes DNA, 50 uM zinc acetate, 200 nM TF, 25 C, 1 h; high values mean tight binding
# Details: protein: recombinant; tags: N-terminal polyhistidine and DsRed monomer fusion (pET32a); chain copies: 2; label: CyDye5-dUTP incorporated in the synthesized complementary strand; 3' TTTTT single-stranded linker to array surface; dsDNA, one strand shown
# In short: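 Binding signal is defined as the fluorescence intensity of each feature in arbitrary units, read on an Axon 4000B scanner. Transcription factors with N-terminal polyhistidine and DsRed fusions came from E. coli BL21-CodonPlus and were purified on Ni–NTA. They were incubated at 200 nM for 1 h at 25 °C on a custom Agilent array that had been made double-stranded with Cy5-dUTP, with 50 µM zinc acetate present, and the array was washed.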
row,Sequence,binding signal
1,AGCTGGTGATGAGCAGCGTCACCAATTCTTCCTGGACGCCCGGAGTCACCTAGTGCAG,4190 fluorescence intensity (a.u.)
2,AACTTATATAGTTAAATGATGAAATTGATGACACAGGCAACGGAGTCACCTAGTGCAG,3570 fluorescence intensity (a.u.)
3,TACTCGTAGTATCATTATTCTGTCGTGTGCTCCATGGAAACGGAGTCACCTAGTGCAG,3870 fluorescence intensity (a.u.)
4,CTTTAGAAAAGAATTTCCCATAATGACTATGAATGCTTGTCGGAGTCACCTAGTGCAG,3820 fluorescence intensity (a.u.)
5,CCGTCTTTGATGATGATGACGAGGACGACTGTGGAATGCCCGGAGTCACCTAGTGCAG,6440 fluorescence intensity (a.u.)
6,TCCTTCCCTGCGCTGCACTGCACTGCACGCTCTCTCACGCCGGAGTCACCTAGTGCAG,18700 fluorescence intensity (a.u.)
7,TACAAATGCTTTCCAGATTTAATTAAGAAGCTTACATAGTCGGAGTCACCTAGTGCAG,4120 fluorescence intensity (a.u.)
8,AGTAATTAGCCACACTGCATATTAGCCACGACACCACAAGCGGAGTCACCTAGTGCAG,3850 fluorescence intensity (a.u.)
9,ATGGCTGATGTGTTTTACCGATGGTTGATGTGTTTTACTGCGGAGTCACCTAGTGCAG,4440 fluorescence intensity (a.u.)
10,TATATGAAATTATTATTTGATTTCTTGATCATATAATGTACGGAGTCACCTAGTGCAG,3440 fluorescence intensity (a.u.)
11,GCTTCGCCTCGGCCGCGCGCGTGGGTTGGCGCCGTGGCAGCGGAGTCACCTAGTGCAG,4360 fluorescence intensity (a.u.)
12,TAAATAAATCTGATACCTCAAATAAATAAGTCAAACCAGTCGGAGTCACCTAGTGCAG,4110 fluorescence intensity (a.u.)
13,TTCATCAGATGAAGCTGATGGCGTCCTCTAGCTGACAGGTCGGAGTCACCTAGTGCAG,3330 fluorescence intensity (a.u.)
14,GCTCCTGTCTGATTCTGTTACATGTCTTGCTTGGCCAGAGCGGAGTCACCTAGTGCAG,3440 fluorescence intensity (a.u.)
15,GCGGGGCCGAGCGGCTGCGTGGCAGGGCAGCGGGGCCGGGCGGAGTCACCTAGTGCAG,3330 fluorescence intensity (a.u.)
16,TATCAAAGCAGGCAGAGGTGTGCTACGTCACTGTACTTGTCGGAGTCACCTAGTGCAG,4960 fluorescence intensity (a.u.)
17,GGAATTAGCTTGCATCGCTGTTGTCGTCGTGGTCTTCTCTCGGAGTCACCTAGTGCAG,3620 fluorescence intensity (a.u.)
18,GGCGCCACGACGGCCGACCTCTTCGCCATGGCCACCGGTGCGGAGTCACCTAGTGCAG,3680 fluorescence intensity (a.u.)
19,CCAAGGCCCGGTACTTTCCTAGCCAGCTGGCAGCCTCCAACGGAGTCACCTAGTGCAG,5390 fluorescence intensity (a.u.)
20,TCCTCTCCGTACGTCATCGCTGGTTCCTCTCCTCTCCCCACGGAGTCACCTAGTGCAG,16800 fluorescence intensity (a.u.)
21,TATTCTTGCATCTGTTGATCATGGTGGAGCTGTGCATCTACGGAGTCACCTAGTGCAG,3360 fluorescence intensity (a.u.)

# Reformatted as tab-separated lines: entries from further up
row	Sequence	binding signal
1	AGCTGGTGATGAGCAGCGTCACCAATTCTTCCTGGACGCCCGGAGTCACCTAGTGCAG	4190 fluorescence intensity (a.u.)
20	TCCTCTCCGTACGTCATCGCTGGTTCCTCTCCTCTCCCCACGGAGTCACCTAGTGCAG	16800 fluorescence intensity (a.u.)

# Next part

row,Sequence,binding signal
1,CCATTCCTCCATCCTGCCGTTGCCACGTTCCCGTGTCGTTCGGAGTCACCTAGTGCAG,4280 fluorescence intensity (a.u.)
2,CTCTGTCTGCTGCCCGGGGCTCCTCCACGCCGGCGTCCTCCGGAGTCACCTAGTGCAG,3390 fluorescence intensity (a.u.)
3,ATTCCGAGGTACTTTGGTTGTTTTAGATTAGTCATAAGCTCGGAGTCACCTAGTGCAG,3730 fluorescence intensity (a.u.)
4,AGATCCGAGATGAATTCGTACCACAACTACGTACTGACCCCGGAGTCACCTAGTGCAG,4480 fluorescence intensity (a.u.)
5,AATAGCCGTTAGTGCCACGTGTCGCCTTCCCGTTGGACCGCGGAGTCACCTAGTGCAG,28700 fluorescence intensity (a.u.)
6,GCAAATCACATTACCATGCAATCCCCGGCCCATAAGTCATCGGAGTCACCTAGTGCAG,3140 fluorescence intensity (a.u.)
7,ACGCTGGGGCAGAAGGCAGGCAAAAGGCACACTCATTCGCCGGAGTCACCTAGTGCAG,33400 fluorescence intensity (a.u.)
8,CGCGTGATCGGCCGTCAGATCCACAGCTCCGGCATCATCCCGGAGTCACCTAGTGCAG,3840 fluorescence intensity (a.u.)
9,CAGCTACCTCAGCGCCAACCGGACTGGCGCTGAGGTGGGACGGAGTCACCTAGTGCAG,39200 fluorescence intensity (a.u.)
10,TCTCTTGTTTGAGTGCTATACATGTGGTCACTTACTCACTCGGAGTCACCTAGTGCAG,3340 fluorescence intensity (a.u.)
11,ATTTGTATGAATGCTAACGTCGGCATATGCATGCGCGCAACGGAGTCACCTAGTGCAG,4100 fluorescence intensity (a.u.)
12,CTGAATATATGACGTACTTCTTTCTTACCACCTTTGCTTGCGGAGTCACCTAGTGCAG,6420 fluorescence intensity (a.u.)
13,GTAGAAGACCGGCGGAAAGTGTGAGGAGGGTGACAAGGGGCGGAGTCACCTAGTGCAG,3420 fluorescence intensity (a.u.)
14,GTAGACAGGTTACATCCAGACCATCACCAGTCACTCAGCTCGGAGTCACCTAGTGCAG,3570 fluorescence intensity (a.u.)
15,TAGTATATTCCAGTGGATTTATCGCACACAAGCGTAGGAACGGAGTCACCTAGTGCAG,3560 fluorescence intensity (a.u.)
16,GCTATCTCTCATGTTTACGTCAAGTTTAATTAACATCCCTCGGAGTCACCTAGTGCAG,3730 fluorescence intensity (a.u.)
17,GGAGTACAAGCGACACGTACCCACGTAACATCCATTAAATCGGAGTCACCTAGTGCAG,4300 fluorescence intensity (a.u.)
18,CAGCCGGGCCCACGTGTCAGTGAGTGCGTGACGCGTCAGCCGGAGTCACCTAGTGCAG,15200 fluorescence intensity (a.u.)
19,ACGCGCGCGCGCGCCAGGTTGATCACCTTGATCCTGCGGCCGGAGTCACCTAGTGCAG,3250 fluorescence intensity (a.u.)
20,AAACTGAAGGGTATTTTCACAAAATTTCCTTTTCTTTCTCCGGAGTCACCTAGTGCAG,6620 fluorescence intensity (a.u.)
21,ACGCATCCACGCCGTCGCCGTTTTCGCGTCACCCACGAAACGGAGTCACCTAGTGCAG,3650 fluorescence intensity (a.u.)
